From paper PMC12040169 (PLOS Biology, 2025)
This is one part of the list.

System: T1, CTL2-GFP (C. trachomatis L2/434/Bu, GFP-expressing)
T1 construct: L2/434/Bu, GFP-expressing
Set-up: species or system HeLa; Intracellular C. trachomatis growth in HeLa cells, bulk GFP fluorescence relative to DMSO
Settings: bulk GFP, single well; 28.5 h, 10 µM; inhibitor

| SMILES | % of control remaining [%] |
| --- | --- |
| Cc1cc2nc(-c3cc(NC(=O)/C=C/c4cccc([N+](=O)[O-])c4)ccc3O)oc2cc1C [CBK263438] | 108.895 |
| CCc1cccc2c(/C=C3/SC(=S)N(CC(=O)O)C3=O)c[nH]c12 [CBK264937] | 100 |
| COc1ccc(CN2CCc3cc(OC)c(OC)cc3C2c2ccccc2)cc1CO (stereo not shown) [CBK286358] | 106.766 |
| CC(=O)N1CCN(C(=O)Cn2ccc3ccccc32)CC(O)C1 (stereo not shown) [CBK307552] | 101.264 |
| COc1ccc(CN2Cc3nc[nH]c3C[C@H]2C(=O)NCc2ccccc2)c2ccccc12 [CBK288976] | 110.948 |
| O=[N+]([O-])c1cccc(CN2CCC(N3CCN(Cc4ccccc4)CC3)CC2)c1 [CBK264609G] | 115.98 |
| CC(C)n1c(=O)n(C(=O)c2ccco2)c2cccnc21 [CBK283856] | 92.249 |
| O=C(NCCc1cccs1)Nc1ccccc1 [CBK269917] | 109.798 |
| Cc1cc(C(=O)NC(C)c2ccccn2)c2ccccc2n1 (stereo not shown) [CBK281826] | 94.1798 |
| O=C(N1CCC(Oc2nccnc2OCc2ccc(Cl)cc2F)CC1)C(F)(F)F [CBK164142] | 98.9941 |
| COc1cccc(COc2nccnc2-c2ccc(C)cc2C)c1OC [CBK106995] | 90.9521 |
| Clc1ccc2c(c1)CCC(NCC1COc3ccccc3O1)C2 (stereo not shown) [CBK013077C] | 107.82 |
| O=C1NCCCC12CCN(Cc1ccccc1N1CCCCC1)CC2 [CBK284878] | 118.684 |
| Cc1ccc(-c2nnc3c4ccccc4c(C)nn23)cc1S(=O)(=O)NC(C)c1ccccc1 (stereo not shown) [CBK266715] | 169.42 |
| CC(NC(=O)c1cc(C(F)(F)F)n(C)n1)c1cccnc1 (stereo not shown) [CBK282203] | 121.892 |
| O=C(Cc1ccccc1)Nc1ccc(NC(=O)c2ccc(-c3ccccc3)cc2)cc1 [CBK268821] | 147.577 |
| O=c1[nH]c2ncc(-c3ccsc3)nc2n1-c1ccc2[nH]ccc2c1 [CBK064650] | 172.493 |
| Cc1c(C(=O)N2CCN(C3CCN(C)CC3)CC2)nnn1-c1cccc(C(F)(F)F)c1 [CBK149088] | 125.211 |
| CN(Cc1cnc(-c2ccncc2)cn1)C1CCN(C(=O)OC(C)(C)C)CC1 [CBK172979] | 102.78 |
| O=C(O)c1ccc(CNCCc2ccccc2)cc1 [CBK287215] | 128.707 |
| O=C1CCC(=O)N1CCn1c(=O)n(S(=O)(=O)c2cccc(Cl)c2)c2ccccc21 [CBK106493] | 105.663 |
| Cc1nn2cc(CNC(=O)CN3CCOc4ccccc4C3)nc2s1 [CBK306921] | 144.647 |
| Cc1cc(OC(=O)C2CCC(CNC(=O)OC(C)(C)C)CC2)c2c3c(c(=O)oc2c1)CCCC3 (stereo not shown) [CBK083590] | 95.2143 |
| CC(C)(C)n1cc(NC2CCN(c3ccc(C#N)cc3)C2=O)cn1 (stereo not shown) [CBK306445] | 108.328 |
| CC(C)CC(=O)N1CCN(C(=O)c2ccc(F)cc2)CC1 [CBK003603] | 138.541 |

| SMILES | % of control remaining [%] |
| --- | --- |
| Cc1cc(=O)c2ccccc2n1CC(=O)N1CCC2(CCO2)CC1 [CBK306809] | 136.242 |
| O=C(O)/C(=C\c1ccccc1)NC(=O)c1cccc([N+](=O)[O-])c1 [CBK263348] | 113.906 |
| COc1ccc(S(=O)(=O)N2CCC(C(=O)Nc3cccc(F)c3)CC2)cc1C [CBK267987] | 124.761 |
| c1ccc2c(c1)CCN(c1nc3cc4c(cc3s1)OCCO4)C2 [CBK287498] | 139.854 |
| O=C(c1ccco1)N1CCC(c2ccnc3nc4ccccc4n23)CC1 [CBK284490] | 130.467 |
| Cn1nc(C2CC2)cc1NC(=O)NCC1CCN(c2ccccc2F)C1 (stereo not shown) [CBK304380] | 124.838 |
| CCN1CCN(C(=O)CN(CC)S(=O)(=O)c2ccc(Cl)cc2)CC1 [CBK268461] | 91.049 |
| Cc1ccc(CC(=O)N2CCCCC2c2ncc(-c3cccc(F)c3)[nH]2)cn1 (stereo not shown) [CBK291152] | 102.495 |
| CN1CCN(CCOC(=O)N2CCCC(F)(F)C2)CC1 [CBK200208] | 103.15 |
| O=C(OCc1cccc(C(=O)c2ccccc2)c1)c1ccc(-c2nnc(-c3ccccc3)o2)cc1 [CBK267852] | 87.9517 |
| Nc1ccc(OCc2nc3ccccc3n2CC(=O)O)cc1 [CBK270099] | 132.175 |
| CCCN1CCC(NC(C)CCCC(C)(C)O)CC1 (stereo not shown) [CBK261932] | 101.263 |
| Cc1ccc(S(=O)(=O)NC[C@H]2O[C@@H](CC(=O)N3CCCC3)[C@H](O)[C@@H]2O)cc1 [CBK288910] | 111.929 |
| COc1ccc(S(=O)(=O)N(C)CC(=O)N2CCN(C)CC2)cc1C [CBK268105] | 109.2 |
| O=C(O)C1CCN(C(=O)CCC(=O)N2CCN(c3ccccc3)CC2)CC1 [CBK286896] | 116.772 |
| Cc1c(CN(Cc2cccc(F)c2)CC2CCCO2)cnn1C (stereo not shown) [CBK282953] | 86.1113 |
| COc1ccc2cc(CN(CCNC(=O)OC(C)(C)C)C(=O)NC3CCCCC3)c(=O)[nH]c2c1 [CBK132074] | 145.757 |
| Cc1noc(C(C)C)c1C(=O)NC(C)c1cccc(Br)c1 (stereo not shown) [CBK296618] | 95.2898 |
| CCC(=O)N(Cc1cc2cc(C)ccc2nc1O)c1ccc(C)c(C)c1 [CBK265381] | 116.348 |
| Cc1ccc(-n2ncc3c(=O)n(CC(=O)NC4CCCCC4)cnc32)cc1 [CBK287536] | 122.159 |
| CCCCCOc1ccc(Nc2ccc(-c3cccc(Cl)c3Cl)cn2)cc1 [CBK036856] | 91.7322 |
| O=[N+]([O-])c1ccc(CN2CCC(Oc3nccnc3OCCN3CCOCC3)CC2)cc1 [CBK082923T] | 144.012 |
| CCCNC(=O)c1ccc(NC(=O)NC(CC)c2ccnn2C)c(C)c1 (stereo not shown) [CBK307608] | 114.919 |
| COc1ccc(C)cc1NC(=O)NC1CCN(Cc2ccccc2)CC1 [CBK267095] | 153.32 |

As a working copy, part of the list above.

| SMILES | % of control remaining [%] |
| --- | --- |
| O=[N+]([O-])c1cccc(CN2CCC(N3CCN(Cc4ccccc4)CC3)CC2)c1 [CBK264609G] | 115.98 |
| CC(C)n1c(=O)n(C(=O)c2ccco2)c2cccnc21 [CBK283856] | 92.249 |
| O=C(NCCc1cccs1)Nc1ccccc1 [CBK269917] | 109.798 |
| Cc1cc(C(=O)NC(C)c2ccccn2)c2ccccc2n1 (stereo not shown) [CBK281826] | 94.1798 |
